Data: publication PMC8384837
Where a chain is given by its changes, count along the chain named. The list shows a part of the results. For some assays here: At the low end of the ranking the order means little.

Assays:
Details in all cases: yeast three-hybrid, YBZ-1, SC-Leu-His + 0.5 mM 3-AT, 4 days
[1] = target: T1, PUM1 PUF domain R4-EYI N971E + H972Y + Q975I (UniProt Q14671)
T1 sequence: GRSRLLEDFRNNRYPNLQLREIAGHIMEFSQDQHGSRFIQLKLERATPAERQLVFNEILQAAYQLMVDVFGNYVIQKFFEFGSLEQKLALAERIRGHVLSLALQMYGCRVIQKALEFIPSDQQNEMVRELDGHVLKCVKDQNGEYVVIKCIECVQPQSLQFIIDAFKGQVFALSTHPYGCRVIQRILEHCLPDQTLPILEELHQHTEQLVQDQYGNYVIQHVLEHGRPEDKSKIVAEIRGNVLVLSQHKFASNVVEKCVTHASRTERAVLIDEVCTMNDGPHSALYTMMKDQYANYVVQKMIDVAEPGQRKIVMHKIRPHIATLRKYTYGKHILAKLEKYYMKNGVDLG

[2] = target: T2, PUM1 PUF domain R4-FNA N971F + H972N + Q975A (Homo sapiens) (UniProt Q14671)
T2 sequence: T1 sequence with E144F, Y145N, I148A

[3] = target: T3, PUM1 PUF domain R4-FNG N971F + H972N + Q975G (Homo sapiens) (UniProt Q14671)
T3 sequence: T1 sequence with E144F, Y145N, I148G

[4] = target: T4, PUM1 PUF domain R4-FNI N971F + H972N + Q975I (Homo sapiens) (UniProt Q14671)
T4 sequence: T1 sequence with E144F, Y145N

[5] = target: T5, PUM1 PUF domain R4-GMG N971G + H972M + Q975G (Homo sapiens) (UniProt Q14671)
T5 sequence: T1 sequence with E144G, Y145M, I148G

[6] = target: T6, PUM1 PUF domain R4-GND N971G + H972N + Q975D (UniProt Q14671)
T6 sequence: T1 sequence with E144G, Y145N, I148D

[7] = target: T7, PUM1 PUF domain R4-GPH N971G + H972P + Q975H (Homo sapiens) (UniProt Q14671)
T7 sequence: T1 sequence with E144G, Y145P, I148H

[8] = target: T8, PUM1 PUF domain R4-GPM N971G + H972P + Q975M (Homo sapiens) (UniProt Q14671)
T8 sequence: T1 sequence with E144G, Y145P, I148M

[9] = target: T9, PUM1 PUF domain R4-GPT N971G + H972P + Q975T (Homo sapiens) (UniProt Q14671)
T9 sequence: T1 sequence with E144G, Y145P, I148T

[10] = target: T10, PUM1 PUF domain R4-GPY N971G + H972P + Q975Y (UniProt Q14671)
T10 sequence: T1 sequence with E144G, Y145P, I148Y

[11] = target: T11, PUM1 PUF domain R4-GQG N971G + H972Q + Q975G (Homo sapiens) (UniProt Q14671)
T11 sequence: T1 sequence with E144G, Y145Q, I148G

[12] = target: T12, PUM1 PUF domain R4-GQS N971G + H972Q + Q975S (Homo sapiens) (UniProt Q14671)
T12 sequence: T1 sequence with E144G, Y145Q, I148S

[13] = target: T13, PUM1 PUF domain R4-GRI N971G + H972R + Q975I (Homo sapiens) (UniProt Q14671)
T13 sequence: T1 sequence with E144G, Y145R

[14] = target: T14, PUM1 PUF domain R4-GRN N971G + H972R + Q975N (Homo sapiens) (UniProt Q14671)
T14 sequence: T1 sequence with E144G, Y145R, I148N

[15] = target: T15, PUM1 PUF domain R4-GRS N971G + H972R + Q975S (Homo sapiens) (UniProt Q14671)
T15 sequence: T1 sequence with E144G, Y145R, I148S

[16] = target: T16, PUM1 PUF domain R4-GWY N971G + H972W + Q975Y (UniProt Q14671)
T16 sequence: T1 sequence with E144G, Y145W, I148Y

[17] = target: T17, PUM1 PUF domain R4-IML N971I + H972M + Q975L (Homo sapiens) (UniProt Q14671)
T17 sequence: T1 sequence with E144I, Y145M, I148L

[18] = target: T18, PUM1 PUF domain R4-LGC N971L + H972G + Q975C (UniProt Q14671)
T18 sequence: T1 sequence with E144L, Y145G, I148C

[19] = target: T19, PUM1 PUF domain R4-LGL N971L + H972G + Q975L (UniProt Q14671)
T19 sequence: T1 sequence with E144L, Y145G, I148L

[20] = target: T20, PUM1 PUF domain R4-LGM N971L + H972G + Q975M (UniProt Q14671)
T20 sequence: T1 sequence with E144L, Y145G, I148M

[21] = target: T21, PUM1 PUF domain R4-LNA N971L + H972N + Q975A (Homo sapiens) (UniProt Q14671)
T21 sequence: T1 sequence with E144L, Y145N, I148A

[22] = target: T22, PUM1 PUF domain R4-LNC N971L + H972N + Q975C (Homo sapiens) (UniProt Q14671)
T22 sequence: T1 sequence with E144L, Y145N, I148C

[23] = target: T23, PUM1 PUF domain R4-LRC N971L + H972R + Q975C (Homo sapiens) (UniProt Q14671)
T23 sequence: T1 sequence with E144L, Y145R, I148C

[24] = target: T24, PUM1 PUF domain R4-MLC N971M + H972L + Q975C (UniProt Q14671)
T24 sequence: T1 sequence with E144M, Y145L, I148C

[25] = target: T25, PUM1 PUF domain R4-MNA N971M + H972N + Q975A (UniProt Q14671)
T25 sequence: T1 sequence with E144M, Y145N, I148A

[26] = target: T26, PUM1 PUF domain R4-MPH N971M + H972P + Q975H (Homo sapiens) (UniProt Q14671)
T26 sequence: T1 sequence with E144M, Y145P, I148H

[27] = target: T27, PUM1 PUF domain R4-MPT N971M + H972P + Q975T (Homo sapiens) (UniProt Q14671)
T27 sequence: T1 sequence with E144M, Y145P, I148T

[28] = target: T28, PUM1 PUF domain R4-MPV N971M + H972P + Q975V (Homo sapiens) (UniProt Q14671)
T28 sequence: T1 sequence with E144M, Y145P, I148V

[29] = target: T29, PUM1 PUF domain R4-NCG H972C + Q975G (Homo sapiens) (UniProt Q14671)
T29 sequence: T1 sequence with E144N, Y145C, I148G

**Q.** With “GGCUAGAACUAGUGGAUCCCCCGGCGCCCGGCGGCUCGAGCCCGGGUAAGUGUACAUAGUCUGCAUGCCGCCGGGCGCCAUGCCUGCAGGUCGACUCUAGAAAACAUG” as the sequence, how does the binding signal (log2 enrichment (interaction score)) [1] read?
**A.** < -6.17

**Q.** And the binding signal (log2 enrichment (interaction score)) [2]?
**A.** 0.19

**Q.** And the binding signal (log2 enrichment (interaction score)) [3]?
**A.** -0.41

**Q.** What about the binding signal (log2 enrichment (interaction score)) [4] of the same sequence?
**A.** -1.42

**Q.** What about the binding signal (log2 enrichment (interaction score)) [5] of the same sequence?
**A.** -0.41

**Q.** What about the binding signal (log2 enrichment (interaction score)) [6] of the same sequence?
**A.** < -5.87

**Q.** What about the binding signal (log2 enrichment (interaction score)) [7] of the same sequence?
**A.** < -4.99

**Q.** What about the binding signal (log2 enrichment (interaction score)) [8] of the same sequence?
**A.** -1.38

**Q.** And the binding signal (log2 enrichment (interaction score)) [9]?
**A.** -1.36

**Q.** And the binding signal (log2 enrichment (interaction score)) [10]?
**A.** < -6.88

**Q.** And the binding signal (log2 enrichment (interaction score)) [11]?
**A.** -2.73

**Q.** What about the binding signal (log2 enrichment (interaction score)) [12] of the same sequence?
**A.** -1.84

**Q.** What about the binding signal (log2 enrichment (interaction score)) [13] of the same sequence?
**A.** -0.6

**Q.** And the binding signal (log2 enrichment (interaction score)) [14]?
**A.** -0.69

**Q.** What about the binding signal (log2 enrichment (interaction score)) [15] of the same sequence?
**A.** 0.44

**Q.** What about the binding signal (log2 enrichment (interaction score)) [16] of the same sequence?
**A.** < -4.78

**Q.** What about the binding signal (log2 enrichment (interaction score)) [17] of the same sequence?
**A.** -2.5

**Q.** And the binding signal (log2 enrichment (interaction score)) [18]?
**A.** < -7.99

**Q.** What about the binding signal (log2 enrichment (interaction score)) [19] of the same sequence?
**A.** < -8.48

**Q.** What about the binding signal (log2 enrichment (interaction score)) [20] of the same sequence?
**A.** < -6.85

**Q.** What about the binding signal (log2 enrichment (interaction score)) [21] of the same sequence?
**A.** -1.12

**Q.** What about the binding signal (log2 enrichment (interaction score)) [22] of the same sequence?
**A.** -0.23

**Q.** And the binding signal (log2 enrichment (interaction score)) [23]?
**A.** -2.85

**Q.** And the binding signal (log2 enrichment (interaction score)) [24]?
**A.** < -6.97

**Q.** And the binding signal (log2 enrichment (interaction score)) [25]?
**A.** < -6.74

**Q.** What about the binding signal (log2 enrichment (interaction score)) [26] of the same sequence?
**A.** -0.87

**Q.** What about the binding signal (log2 enrichment (interaction score)) [27] of the same sequence?
**A.** 0.34

**Q.** What about the binding signal (log2 enrichment (interaction score)) [28] of the same sequence?
**A.** -0.92

**Q.** What about the binding signal (log2 enrichment (interaction score)) [29] of the same sequence?
**A.** -0.23
